Measurements taken from US20110124589A1, “INHALED FOSFOMYCIN/TOBRAMYCIN FOR THE TREATMENT OF CHRONIC OBSTRUCTIVE PULMONARY DISEASE” (Gilead Sciences, Inc., priority 2009, published 2011).
For some assays here: At least one compound was matched to its structure with a doubt left. Some of these results come from one statement about several compounds together.

How the values were obtained:
[1] = test system: P. aeruginosa cell wall biosynthesis; assay: Cell wall peptidoglycan biosynthesis, incorporation of 3H-NAG; assay type: cell-based, P. aeruginosa ATCC 27853; details: FTI 6.4-1.6 μg/mL; fosfomycin 6.4 μg/mL; tobramycin 1.6 μg/mL; 2% mucin
[2] = oral 400 mg daily for 5 days every 8 weeks, 48 weeks; subgroup with mucopurulent or purulent sputum; cited from earlier work

Structure (SMILES): NC[C@H]1O[C@H](O[C@H]2[C@H](O)[C@@H](O[C@H]3O[C@H](CO)[C@@H](O)[C@H](N)[C@H]3O)[C@H](N)C[C@@H]2N)[C@H](N)C[C@@H]1O [Tobramycin]
- T1/2, time to 50% inhibition of cell wall biosynthesis [1]: > 180 min

Structure (SMILES): COc1c(N2C[C@@H]3CCCN[C@@H]3C2)c(F)cc2c(=O)c(C(=O)O)cn(C3CC3)c12 [moxifloxacin]
- relative reduction in the odds of exacerbation [2]: 45%
